In PubChem BioAssay AID504465 (National Center for Advancing Translational Sciences (NCATS), 2011):
Among all 2,100 compounds or so, about 210 (10%) were called active. The shares of active, inactive and inconclusive entries below differ from those in the screen. Calls follow the shape of the dose curve; as a rule, active = well fitted inhibition curve with a large enough effect; inconclusive = small, poorly fitted or top-dose-only effect, or effect the other way; inactive = no such curve, though single readings can be large or run the other way. Where the call is inconclusive, the potency comes from a doubtful curve fit.

Experiment: IN Cell qHTS Assay for Inhibitors of the mTORC1 Signaling Pathway in MEF (Tsc2-/-, p53-/-) Cells: Sytravon; also: nearly all actives have a fitted effect of over 60% in size
Details: phospho-rpS6 immunofluorescence, 24 h; activity, negative = inhibition: at 38.3 µM (top of the series)
In short: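 Immunofluorescence of rpS6 phosphorylation (Ser235/236) in mouse embryonic fibroblasts lacking Tsc2 and p53, after 24 h compound exposure; Hoechst-normalized signal imaged, each well scored as % active cells relative to rapamycin (7.5 nM) and DMSO controls.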
Potency is read from the fitted curve at half-maximal effect.

Structure (SMILES) | Potency | activity, negative = inhibition
Cc1ccc(C2c3c(-c4ccccc4O)n[nH]c3C(=O)N2CCc2ccccc2)cc1 (stereo not given) | inconclusive: 8.26 µM [falling, partial curve] | 
COc1ccc(CCNC(=O)CSc2cn(CCNC(=O)c3ccccc3F)c3ccccc23)cc1OC |  | inconclusive: 44.5% [activator]
CCOc1ccc(C2=C(C(=O)CC)Sc3nncn3N2C(=O)CC)cc1 | inconclusive: 23.3 µM [falling, partial curve, poor fit] | 
COc1ccccc1N1CCN(S(=O)(=O)c2ccc(-n3cnnn3)cc2)CC1 |  | inactive: -7.47%
CC(=O)N1c2ccc(S(=O)(=O)NCC3CCC(C(=O)Nc4cc(C)cc(C)c4)CC3)cc2CC1C (stereo not given) |  | inactive: -17.7%
Cc1ccc(C(=O)/C=C/c2cn(CC(O)CN3CCCCCC3)c3ccccc23)cc1 (stereo not given) | inconclusive: 14.7 µM [falling, single point] | 
CCN(CC)CCOC(=O)c1ccc(NC(=O)c2cc3cccc(OC)c3oc2=O)cc1 | inconclusive: 0.0927 µM [falling, full curve, poor fit] | 
CCOc1ccc(S(=O)(=O)N(C(C)=O)c2ccc3oc(C)c(C(=O)OC)c3c2)cc1 | inconclusive: 4.65 µM [falling, full curve, poor fit] | 
CCCCN(C)CCCNC(=O)C1CCN(c2nc3ccc(CC)cc3s2)CC1 | active: 5.21 µM | 
COc1ccc(-c2cc(C(F)(F)F)nc(S(=O)(=O)CCCC(=O)Nc3cccc(O)c3)n2)cc1OC | inconclusive: 16.5 µM [falling, single point] | 
COc1ccc(C(F)(F)F)cc1NC(=O)c1sc2nc(-c3cccs3)ccc2c1N | inconclusive: 4.14 µM [falling, full curve, poor fit] | 
CC(=O)c1ccc(N2CCN(c3ncnc4c3c(-c3ccccc3)cn4-c3cccc(C)c3)CC2)cc1 |  | inactive: 6.25%
COC(=O)c1cccc(-n2c(CCC(=O)O)ccc2-c2ccc(OC)cc2)c1 | inconclusive: 0.0465 µM [falling, full curve, poor fit] | 
COC(=O)c1ccc(Nc2nnc(-c3ccc(C)c(S(=O)(=O)N4CCN(C)CC4)c3)c3ccccc23)cc1 | inconclusive: 16.5 µM [falling, single point] | 
CCOC(=O)c1c(C)oc2nc(C)nc(NCc3ccc(Cl)cc3)c12 |  | inactive: -2.13%
Cc1cccc(NC(=O)c2nc(S(C)(=O)=O)ncc2Cl)c1 | active: 2.61 µM | 
Cc1ccccc1NC(=O)CCn1cnc2onc(-c3ccc(F)cc3)c2c1=O |  | inactive: -0.638%
O=C(NCCCN1CCN(c2ccc(F)cc2)CC1)Nc1ccc(Cl)cc1 | inconclusive: 14.7 µM [falling, partial curve, poor fit] | 
COc1ccc(C2c3c(-c4c(C)cc(C)cc4O)n[nH]c3C(=O)N2Cc2ccco2)cc1 (stereo not given) | inconclusive: 26.1 µM [falling, single point] | 
Cc1ccc(CN2C(=O)C(O)(c3c[nH]c4ccccc34)c3cc(Cl)ccc32)cc1 (stereo not given) | inconclusive: 16.5 µM [falling, single point] | 
CCCC1=Nc2cc(C(=O)NC(C)c3ccccc3)ccc2Sc2ccc(C)cc21 (stereo not given) | inconclusive: 18.5 µM [falling, partial curve] | 
CCCc1ccc(C2Sc3ccccc3NC3=C2C(=O)c2ccccc23)cc1 (stereo not given) |  | inactive: -13.1%

Structure (SMILES) | Potency | activity, negative = inhibition
Cc1ccc(OCC(=O)NCC2(N3CCN(C)CC3)CCCCC2)cc1C |  | inactive: -20.2%
COc1ccc(OC)c(NC(=O)CSc2c3c(nc4ccccc24)CCCC3)c1 | inconclusive: 0.0037 µM [activator, full curve, poor fit] | 
COc1ccc(-c2nn(C)c3sc(C(=O)Nc4cccc(F)c4)cc23)cc1OC |  | inactive: 0%
Cc1cc(C)c2c(CC(=O)N(Cc3ccc(N(C)C)cc3)Cc3ccco3)coc2c1 | active: 6.56 µM | 
Cc1ccccc1OCc1ccc(-c2nc(C#N)c(NCCCN(C)C)o2)o1 | inconclusive: 18.5 µM [falling, partial curve, poor fit] | 
Cn1nnnc1SCCCNCc1cccc(OCc2ccc(Cl)cc2)c1 | inconclusive: 26.1 µM [falling, single point] | 
CCCCOC(=O)c1ccc(NC(=O)Cc2coc3ccc(C(C)C)cc23)cc1 |  | inactive: -1.11%
Cc1ccc(-n2c(SCC(=O)Nc3cccc(Cl)c3)nc3n[nH]c(C)c3c2=N)cc1 |  | inactive: 0%
O=C(CSc1n[nH]c(-c2ccccc2Cl)n1)N1CCN(c2ccccc2F)CC1 | inconclusive: 9.27 µM [falling, partial curve] | 
COc1ccc(NC(=O)c2ccco2)cc1NC(=O)COc1ccc(C)cc1C | inconclusive: 11.7 µM [falling, single point] | 
Cc1cc(Cl)ccc1NC(=O)CN1C(=O)C(=O)c2ccccc21 | active: 2.07 µM | 
COc1ccc(NS(=O)(=O)c2ccc(NS(=O)(=O)c3ccc4c(c3)OCCO4)cc2)cc1 | inconclusive: 14.7 µM [falling, single point] | 
Cc1c(C(=O)NCc2ccccc2Cl)sc2nc3n(c(=O)c12)CCC3 | inconclusive: 18.5 µM [falling, partial curve, poor fit] | 
O=C(Cn1c(=O)n(Cc2ccc3c(c2)OCO3)c(=O)c2ccc(C(=O)NC3CCCCC3)cc21)Nc1ccccc1F | inconclusive: 1.47 µM [falling, partial curve, poor fit] | 
O=c1[nH]c(SCc2ccc(Br)cc2)nc2c1CCCC2 |  | inactive: -18.7%
COc1ccc(-n2c(=O)c3ccc(C(=O)NCc4ccc(C)cc4)cc3n(CC(=O)Nc3ccc(C)cc3)c2=O)cc1 | inconclusive: 9.27 µM [falling, partial curve, poor fit] | 
CCOC(=O)C(Cc1c[nH]c2ccccc12)NC(=O)COc1ccc(Cl)cc1 (stereo not given) |  | inactive: 0%
COc1cc(C(=O)N2CCc3c([nH]c4ccccc34)C2c2ccc(C)cc2)cc(OC)c1OC (stereo not given) |  | inactive: -41.5%
COc1ccc(CNCCC(c2ccccc2)c2ccc3c(c2)OCO3)cc1 (stereo not given) | inconclusive: 3.69 µM [falling, partial curve, poor fit] | 
CCOc1ccc(-c2nc(SCC(=O)NC3CCCC3)c(-c3ccccc3)[nH]2)cc1OC | inconclusive: 1.65 µM [falling, partial curve, poor fit] | 
COc1ccc(C)cc1NC(=O)Cn1c(=O)ccc2cc(S(=O)(=O)N3CCC(C)CC3)ccc21 | inconclusive: 23.3 µM [falling, single point] | 
CCCCN1C(C(=O)c2ccccc2)=C(OC(C)=O)c2ccccc2S1(=O)=O |  | inactive: -15.5%

In a second layout: results already given.
Structure (SMILES)	Potency	activity, negative = inhibition
Cn1nnnc1SCCCNCc1cccc(OCc2ccc(Cl)cc2)c1	inconclusive: 26.1 µM [falling, single point]	
CCCCOC(=O)c1ccc(NC(=O)Cc2coc3ccc(C(C)C)cc23)cc1		inactive: -1.11%
Cc1ccc(-n2c(SCC(=O)Nc3cccc(Cl)c3)nc3n[nH]c(C)c3c2=N)cc1		inactive: 0%

Further compounds follow:

Structure (SMILES) | Potency | activity, negative = inhibition
CCOc1ccc(OCC)c(NS(=O)(=O)c2ccc(-c3coc(C)n3)cc2)c1 |  | inactive: -11.1%
Cc1ccc(O)c(NC(=O)c2cc(-c3ccccc3O)no2)c1 | inconclusive: 10.4 µM [falling, partial curve] | 
CCc1nc2ccccc2n1CCCCOc1ccc(C)cc1 | inconclusive: 14.7 µM [falling, partial curve, poor fit] | 
CC(=O)c1ccc(NC(=O)Cn2cc(S(=O)(=O)Cc3cccc(Cl)c3)c3ccccc32)cc1 | inconclusive: 14.7 µM [falling, single point] | 
CCc1ccc(C(=O)c2cn(CC(=O)Nc3ccc4c(c3)OCO4)c3cc(OC)c(OC)cc3c2=O)cc1 | inconclusive: 2.33 µM [falling, full curve, poor fit] | 
Cc1ccc(C)c(N2CCN(CCCNC(=O)c3cnn(-c4ccccc4Cl)c3C3CCN(C(=O)OC(C)(C)C)CC3)CC2)c1 | inconclusive: 18.5 µM [falling, single point] | 
Cc1ccc(C(=O)Nc2ccc(NC(=O)c3cccs3)cc2)cc1C | inconclusive: 23.3 µM [falling, single point] | 
COc1ccc(CN2CCN(Cc3cc(=O)oc4cc(C)ccc34)CC2)c(OC)c1OC | inconclusive: 26.1 µM [falling, single point] | 
O=C(Nc1ccc2nn(-c3ccccc3)nc2c1)c1cc2ccccc2o1 | inconclusive: 20.7 µM [falling, single point] | 
CCC(Sc1nncn2c1cc1oc(C)cc12)C(=O)Nc1ccc(F)cc1 (stereo not given) | inconclusive: 14.7 µM [falling, single point] | 
COc1cc(C2CC(=O)Nc3cc4c(cc32)OCCO4)cc(Br)c1OC (stereo not given) | inconclusive: 2.07 µM [falling, full curve, poor fit] | 
CC(C)(C)OC(=O)N1CCC(c2c(C(=O)NCCN3CCC(Cc4ccccc4)CC3)cnn2-c2ccc(F)cc2)CC1 | inconclusive: 18.5 µM [falling, single point] | 
Cc1oc2ccc(O)c(CN3CCC(C)CC3)c2c1C(=O)Nc1ccccc1 | active: 5.21 µM | 
CCCCN(C)CCNC(=O)c1cc(-c2ccc(Cl)s2)nc2ccccc12 | inconclusive: 18.5 µM [falling, partial curve, poor fit] | 
CCc1ccc(NS(=O)(=O)c2ccc3[nH]c4c(c3c2)CCCCCC4)cc1 |  | inactive: -5.72%
CCOc1ccc(-c2cc(C)n3nc(C(=O)Nc4cc(Cl)ccc4O)cc3n2)cc1 | inconclusive: 0.0041 µM [falling, full curve, poor fit] | 
Cc1cc(C)cc(NS(=O)(=O)c2ccc(-c3cc(C)no3)cc2)c1 |  | inactive: -19.4%
O=C(Nc1ccc(F)cc1)Nc1nnc(SCC(=O)N2CCCCC2)s1 |  | inactive: -0.292%
CN1CCN(C2(CNC(=O)COc3ccc(C(C)(C)C)cc3)CCCCC2)CC1 | active: 14.7 µM | 
CCC(C)S(=O)(=O)c1oc(-c2ccc(F)cc2)nc1S(=O)(=O)c1ccc(F)cc1 (stereo not given) | active: 1.04 µM | 
CCN1CCN(c2cc(C)c3cc(NC(=O)/C=C/c4ccc(OCCC(C)C)cc4)ccc3n2)CC1 | inconclusive: 1.47 µM [falling, full curve, poor fit] | 
